Data reported in paper doi:10.1101/2021.06.01.446532.

Protein sequences, listed by entry. Tags and fused reporters are not part of them.
UniProt Q8CEE6: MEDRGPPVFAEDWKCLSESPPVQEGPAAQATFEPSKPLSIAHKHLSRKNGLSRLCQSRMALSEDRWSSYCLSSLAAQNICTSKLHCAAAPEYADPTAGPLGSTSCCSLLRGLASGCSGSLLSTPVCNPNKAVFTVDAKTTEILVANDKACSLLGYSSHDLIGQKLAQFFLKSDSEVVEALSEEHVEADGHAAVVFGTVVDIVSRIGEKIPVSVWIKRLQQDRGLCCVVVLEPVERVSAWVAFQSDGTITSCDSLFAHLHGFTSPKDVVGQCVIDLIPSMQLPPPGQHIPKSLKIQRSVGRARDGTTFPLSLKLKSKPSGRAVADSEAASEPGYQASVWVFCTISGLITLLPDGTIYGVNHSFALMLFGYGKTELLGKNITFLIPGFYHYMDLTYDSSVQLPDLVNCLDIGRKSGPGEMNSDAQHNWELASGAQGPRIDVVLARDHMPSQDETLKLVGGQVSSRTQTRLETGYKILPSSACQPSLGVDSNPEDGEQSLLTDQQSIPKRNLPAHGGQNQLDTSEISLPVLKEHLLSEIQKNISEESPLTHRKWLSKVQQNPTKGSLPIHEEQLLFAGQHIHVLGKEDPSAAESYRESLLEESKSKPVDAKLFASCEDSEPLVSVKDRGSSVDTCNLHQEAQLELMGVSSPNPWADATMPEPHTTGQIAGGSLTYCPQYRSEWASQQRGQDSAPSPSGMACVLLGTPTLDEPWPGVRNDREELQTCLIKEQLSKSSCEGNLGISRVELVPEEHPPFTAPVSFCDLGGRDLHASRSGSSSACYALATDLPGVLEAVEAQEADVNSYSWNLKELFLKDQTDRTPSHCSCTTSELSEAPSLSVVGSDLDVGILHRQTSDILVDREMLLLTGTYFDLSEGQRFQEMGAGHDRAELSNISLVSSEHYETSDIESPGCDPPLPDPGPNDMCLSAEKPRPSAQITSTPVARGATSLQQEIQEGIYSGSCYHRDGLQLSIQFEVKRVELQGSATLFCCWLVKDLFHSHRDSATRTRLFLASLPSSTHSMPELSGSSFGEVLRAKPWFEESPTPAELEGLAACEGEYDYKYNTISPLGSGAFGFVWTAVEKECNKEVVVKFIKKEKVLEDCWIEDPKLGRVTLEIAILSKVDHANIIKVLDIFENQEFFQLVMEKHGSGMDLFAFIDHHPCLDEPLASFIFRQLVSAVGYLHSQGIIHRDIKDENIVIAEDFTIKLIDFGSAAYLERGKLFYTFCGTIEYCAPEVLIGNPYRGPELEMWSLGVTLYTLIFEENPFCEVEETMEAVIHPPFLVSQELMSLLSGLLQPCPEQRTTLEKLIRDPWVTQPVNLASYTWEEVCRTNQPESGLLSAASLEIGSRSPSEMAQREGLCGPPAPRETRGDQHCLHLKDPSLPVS

T1: LRRC23 (mouse (endogenous in testis)) (UniProt O35125)
T1 sequence: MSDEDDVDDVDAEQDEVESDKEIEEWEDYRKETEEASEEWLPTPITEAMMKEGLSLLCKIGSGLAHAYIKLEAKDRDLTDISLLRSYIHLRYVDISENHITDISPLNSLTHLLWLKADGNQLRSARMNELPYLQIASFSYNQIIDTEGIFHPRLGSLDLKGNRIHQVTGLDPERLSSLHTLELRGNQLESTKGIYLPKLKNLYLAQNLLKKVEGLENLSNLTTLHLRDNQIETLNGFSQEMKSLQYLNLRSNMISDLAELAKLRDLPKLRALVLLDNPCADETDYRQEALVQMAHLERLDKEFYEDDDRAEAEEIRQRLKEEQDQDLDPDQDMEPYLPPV


How the values were obtained:
[1] = molecular target: T1, LRRC23 (mouse (endogenous in testis)); test: affinity purification with mass spectrometry
[2] = molecular target: T1, LRRC23 (mouse (endogenous in testis)); test: affinity purification with mass spectrometry; remark: listed apart in the source

binding [1] | binding [2] | Molecule
binds | – | PAS domain-containing serine/threonine-protein kinase (from UniProt Q8CEE6 1-1383)
– | binds | SDF4 (protein, UniProt Q61112 36-361) RPANHSSTRERAANREENEIMPPDHLNGVKLEMDGHLNKDFHQEVFLGKDMDGFDEDSEPRRSRRKLMVIFSKVDVNTDRRISAKEMQHWIMEKTAEHFQEAVKENKLHFRAVDPDGDGHVSWDEYKVKFLASKGHNEREIAEAIKNHEELKVDEETQEVLGNLRDRWYQADNPPADLLLTEDEFLSFLHPEHSRGMLKFMVKEIFRDLDQDGDKQLSLPEFISLPVGTVENQQGQDIDDNWVKDRKKEFEELIDSNHDGIVTMEELENYMDPMNEYNALNEAKQMIAIADENQNHHLEPEEILKYSEFFTGSKLMDYARNVHEEF
– | binds | TDRD1 (protein, UniProt Q99MV1 1-1172) MMPRNNLEASTCKMAEPFNFEKKESKPPPQDPLRSPVAQHNHPTFRLKSPENGNTKNNFLLCEQNKQYLASQEDSSVVSSNPAVVNGEVGGSKGDRKPPPTGNPVSPLSLGNSSPPNQVKTKPSSNVTPEKSKKSHKLFENALSVNNPALFNSLGPPLRSTTCHRCGLFGSLRCSQCKQTYYCSTACQRRDWSSHSTICRPVQQSLNKLEDNKSPFETKAIEVKSEVDCPPGVTKEITAGAERVMFSDLRSLQLKKTMEIKGTVTEFKHPSNFYIQLYSSEVLENMNQLSTSLKETYANVVPEDGYLPVKGEVCVAKYTVDQTWNRAIVQAVDVLQRKAHVLYIDYGNEEMIPIDSVHPLSRGLDLFPPSAIKCCVSGVIPTAGEWSEGCVAAVKALLFEQFCSVKVMDILEEEVLTCAVDLVLQSSGKQLDHVLVEMGYGVKPGEQSSTEQSVDHSALEDVGRVTVESKIVTDRNALIPKVLTLNVGDEFCGVVAHIQTPEDFFCQQLQSGHKLAELQESLSEYCGHVIPRSDFYPTIGDVCCAQFSEDDQWYRASVLAYASEESVLVGYVDYGNFEILSLKRLCPIIPKLLDLPMQALNCVLAGVKPSLGIWTPEAVCVMKEMVQNRMVTVRVVGMLGTRALVELIDKSVAPHVSASKALIDSGFAIKEKDVADKGSSMHTASVPLAIEGPAEALEWTWVEFTVDETVDVVVCMMYSPGEFYCHFLKDDALEKLDDLNQSLADYCAQKPPNGFKAEIGRPCCAFFSGDGNWYRALVKEILPSGNVKVHFVDYGNVEEVTTDQLQAILPQFLLLPFQGMQCWLVDIQPPNKHWTKEATARFQACVVGLKLQARVVEITANGVGVELTDLSTPYPKIISDVLIREQLVLRCGSPQDSLMSRPANQHKQIDSHRVQASPSAEQWKTMELPVNKTIAANVLEIISPALFYAIPSEMSENQEKLCVLAAELLEHCNAQKGQPAYRPRTGDACCAKYTNDDFWYRAIVLETSESDVKVLYADYGNIETLPLSRVQPIPASHLELPFQIIRCSLEGPMELNGSCSQLVMELLRNAMLNQSVVLSVKAISKNVHAVSVEKCSENGMINIAENLVMCGLAENLTSKRKSASTKEIPHSRDCCCTELQKQIEKHEQILLFLLNNPTNQSKFTEMKKLLRS

Read-outs that look alike come from different tables or passages of the source. No constants are given. Whether binding was seen depends on the method and setting. Binding seen in cells or lysates may run through a third protein. Here binding means that the protein was enriched with, or labelled near, the bait; the list need not be complete.
